This passage reports binding results from paper doi:10.1101/2022.03.11.483950.

Results are given in words; binding and its absence hold for the method and conditions named. Some results given as binding are weak or reduced against the parent protein; the word gives no strength.

T1: PplT (prokaryotic phospholipid translocator) protein of Escherichia coli (E. coli) (UniProt P75770)
T1 sequence: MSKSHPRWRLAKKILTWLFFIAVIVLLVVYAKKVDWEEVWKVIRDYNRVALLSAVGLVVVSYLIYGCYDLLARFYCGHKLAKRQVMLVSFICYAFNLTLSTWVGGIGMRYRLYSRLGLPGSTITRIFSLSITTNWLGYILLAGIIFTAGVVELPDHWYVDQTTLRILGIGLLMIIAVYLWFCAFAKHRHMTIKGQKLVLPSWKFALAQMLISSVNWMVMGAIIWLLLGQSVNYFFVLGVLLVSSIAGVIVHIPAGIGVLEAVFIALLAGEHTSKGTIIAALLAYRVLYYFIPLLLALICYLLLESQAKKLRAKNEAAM

B1: cardiolipin synthase ClsB (enzyme, UniProt P0AA84 1-413)
chain: MKCSWREGNKIQLLENGEQYYPAVFKAIGEAQERIILETFIWFEDDVGKQLHAALLAAAQRGVKAEVLLDGYGSPDLSDEFVNELTAAGVVFRYYDPRPRLFGMRTNVFRRMHRKIVVIDARIAFIGGLNYSAEHMSSYGPEAKQDYAVRLEGPIVEDILQFELENLPGQSAARRWWRRHHKAEENRQPGEAQVLLVWRDNEEHRDDIERHYLKMLTQARREVIIANAYFFPGYRFLHALRKAARRGVRIKLIIQGEPDMPIVRVGARLLYNYLVKGGVQVFEYRRRPLHGKVALMDDHWATVGSSNLDPLSLSLNLEANVIIHDRHFNQTLRDNLNGIIAADCQQVDETMLPKRTWWNLTKSVLAFHFLRHFPALVGWLPAHTPRLAQVDPPAQPTMETQDRVETENTGVKP
B2: PgpA (enzyme, UniProt P18200 1-172)
chain: MTILPRHKDVAKSRLKMSNPWHLLAVGFGSGLSPIVPGTMGSLAAIPFWYLMTFLPWQLYSLVVMLGICIGVYLCHQTAKDMGVHDHGSIVWDEFIGMWITLMALPTNDWQWVAAGFVIFRILDMWKPWPIRWFDRNVHGGMGIMIDDIVAGVISAGILYFIGHHWPLGILS
B3: PgpC (enzyme, UniProt P0AD42 1-211)
chain: MATHERRVVFFDLDGTLHQQDMFGSFLRYLLRRQPLNALLVLPLLPIIAIALLIKGRAARWPMSLLLWGCTFGHSEARLQTLQADFVRWFRDNVTAFPLVQERLTTYLLSSDADIWLITGSPQPLVEAVYFDTPWLPRVNLIASQIQRGYGGWVLTMRCLGHEKVAQLERKIGTPLRLYSGYSDSNQDNPLLYFCQHRWRVTPRGELQQLE
B4: PgpB (enzyme, UniProt P0A924 1-254)
chain: MRSIARRTAVGAALLLVMPVAVWISGWRWQPGEQSWLLKAAFWVTETVTQPWGVITHLILFGWFLWCLRFRIKAAFVLFAILAAAILVGQGVKSWIKDKVQEPRPFVIWLEKTHHIPVDEFYTLKRAERGNLVKEQLAEEKNIPQYLRSHWQKETGFAFPSGHTMFAASWALLAVGLLWPRRRTLTIAILLVWATGVMGSRLLLGMHWPRDLVVATLISWALVAVATWLAQRICGPLTPPAEENREIAQREQES

The assay addresses T1, PplT (prokaryotic phospholipid translocator) protein of Escherichia coli (E. coli). Description: two-hybrid.
As to B1, the binding result was “binds”.
B2: the binding result is recorded as “binds”.
In the case of B3, the binding result is on record as “binds”.
For B4, the binding result is “binds”.
